This experiment concerns the target DNA-dependent protein kinase catalytic subunit (DNA-PKcs) (human (endogenous in A172)) (UniProt P78527). In words: co-IP; 500 μg nuclei-localized protein lysates of A172 cells (irradiated 5 Gy, 2 and 4 hours, or mock), pre-cleared with protein A/G beads; anti-DNA-PKcs antibody overnight, protein A/G beads 2 hours at 4°C; Gαi3 detected by Western blotting.

By UniProt entry, the sequences of proteins in these tests, tags left out.
UniProt P78527: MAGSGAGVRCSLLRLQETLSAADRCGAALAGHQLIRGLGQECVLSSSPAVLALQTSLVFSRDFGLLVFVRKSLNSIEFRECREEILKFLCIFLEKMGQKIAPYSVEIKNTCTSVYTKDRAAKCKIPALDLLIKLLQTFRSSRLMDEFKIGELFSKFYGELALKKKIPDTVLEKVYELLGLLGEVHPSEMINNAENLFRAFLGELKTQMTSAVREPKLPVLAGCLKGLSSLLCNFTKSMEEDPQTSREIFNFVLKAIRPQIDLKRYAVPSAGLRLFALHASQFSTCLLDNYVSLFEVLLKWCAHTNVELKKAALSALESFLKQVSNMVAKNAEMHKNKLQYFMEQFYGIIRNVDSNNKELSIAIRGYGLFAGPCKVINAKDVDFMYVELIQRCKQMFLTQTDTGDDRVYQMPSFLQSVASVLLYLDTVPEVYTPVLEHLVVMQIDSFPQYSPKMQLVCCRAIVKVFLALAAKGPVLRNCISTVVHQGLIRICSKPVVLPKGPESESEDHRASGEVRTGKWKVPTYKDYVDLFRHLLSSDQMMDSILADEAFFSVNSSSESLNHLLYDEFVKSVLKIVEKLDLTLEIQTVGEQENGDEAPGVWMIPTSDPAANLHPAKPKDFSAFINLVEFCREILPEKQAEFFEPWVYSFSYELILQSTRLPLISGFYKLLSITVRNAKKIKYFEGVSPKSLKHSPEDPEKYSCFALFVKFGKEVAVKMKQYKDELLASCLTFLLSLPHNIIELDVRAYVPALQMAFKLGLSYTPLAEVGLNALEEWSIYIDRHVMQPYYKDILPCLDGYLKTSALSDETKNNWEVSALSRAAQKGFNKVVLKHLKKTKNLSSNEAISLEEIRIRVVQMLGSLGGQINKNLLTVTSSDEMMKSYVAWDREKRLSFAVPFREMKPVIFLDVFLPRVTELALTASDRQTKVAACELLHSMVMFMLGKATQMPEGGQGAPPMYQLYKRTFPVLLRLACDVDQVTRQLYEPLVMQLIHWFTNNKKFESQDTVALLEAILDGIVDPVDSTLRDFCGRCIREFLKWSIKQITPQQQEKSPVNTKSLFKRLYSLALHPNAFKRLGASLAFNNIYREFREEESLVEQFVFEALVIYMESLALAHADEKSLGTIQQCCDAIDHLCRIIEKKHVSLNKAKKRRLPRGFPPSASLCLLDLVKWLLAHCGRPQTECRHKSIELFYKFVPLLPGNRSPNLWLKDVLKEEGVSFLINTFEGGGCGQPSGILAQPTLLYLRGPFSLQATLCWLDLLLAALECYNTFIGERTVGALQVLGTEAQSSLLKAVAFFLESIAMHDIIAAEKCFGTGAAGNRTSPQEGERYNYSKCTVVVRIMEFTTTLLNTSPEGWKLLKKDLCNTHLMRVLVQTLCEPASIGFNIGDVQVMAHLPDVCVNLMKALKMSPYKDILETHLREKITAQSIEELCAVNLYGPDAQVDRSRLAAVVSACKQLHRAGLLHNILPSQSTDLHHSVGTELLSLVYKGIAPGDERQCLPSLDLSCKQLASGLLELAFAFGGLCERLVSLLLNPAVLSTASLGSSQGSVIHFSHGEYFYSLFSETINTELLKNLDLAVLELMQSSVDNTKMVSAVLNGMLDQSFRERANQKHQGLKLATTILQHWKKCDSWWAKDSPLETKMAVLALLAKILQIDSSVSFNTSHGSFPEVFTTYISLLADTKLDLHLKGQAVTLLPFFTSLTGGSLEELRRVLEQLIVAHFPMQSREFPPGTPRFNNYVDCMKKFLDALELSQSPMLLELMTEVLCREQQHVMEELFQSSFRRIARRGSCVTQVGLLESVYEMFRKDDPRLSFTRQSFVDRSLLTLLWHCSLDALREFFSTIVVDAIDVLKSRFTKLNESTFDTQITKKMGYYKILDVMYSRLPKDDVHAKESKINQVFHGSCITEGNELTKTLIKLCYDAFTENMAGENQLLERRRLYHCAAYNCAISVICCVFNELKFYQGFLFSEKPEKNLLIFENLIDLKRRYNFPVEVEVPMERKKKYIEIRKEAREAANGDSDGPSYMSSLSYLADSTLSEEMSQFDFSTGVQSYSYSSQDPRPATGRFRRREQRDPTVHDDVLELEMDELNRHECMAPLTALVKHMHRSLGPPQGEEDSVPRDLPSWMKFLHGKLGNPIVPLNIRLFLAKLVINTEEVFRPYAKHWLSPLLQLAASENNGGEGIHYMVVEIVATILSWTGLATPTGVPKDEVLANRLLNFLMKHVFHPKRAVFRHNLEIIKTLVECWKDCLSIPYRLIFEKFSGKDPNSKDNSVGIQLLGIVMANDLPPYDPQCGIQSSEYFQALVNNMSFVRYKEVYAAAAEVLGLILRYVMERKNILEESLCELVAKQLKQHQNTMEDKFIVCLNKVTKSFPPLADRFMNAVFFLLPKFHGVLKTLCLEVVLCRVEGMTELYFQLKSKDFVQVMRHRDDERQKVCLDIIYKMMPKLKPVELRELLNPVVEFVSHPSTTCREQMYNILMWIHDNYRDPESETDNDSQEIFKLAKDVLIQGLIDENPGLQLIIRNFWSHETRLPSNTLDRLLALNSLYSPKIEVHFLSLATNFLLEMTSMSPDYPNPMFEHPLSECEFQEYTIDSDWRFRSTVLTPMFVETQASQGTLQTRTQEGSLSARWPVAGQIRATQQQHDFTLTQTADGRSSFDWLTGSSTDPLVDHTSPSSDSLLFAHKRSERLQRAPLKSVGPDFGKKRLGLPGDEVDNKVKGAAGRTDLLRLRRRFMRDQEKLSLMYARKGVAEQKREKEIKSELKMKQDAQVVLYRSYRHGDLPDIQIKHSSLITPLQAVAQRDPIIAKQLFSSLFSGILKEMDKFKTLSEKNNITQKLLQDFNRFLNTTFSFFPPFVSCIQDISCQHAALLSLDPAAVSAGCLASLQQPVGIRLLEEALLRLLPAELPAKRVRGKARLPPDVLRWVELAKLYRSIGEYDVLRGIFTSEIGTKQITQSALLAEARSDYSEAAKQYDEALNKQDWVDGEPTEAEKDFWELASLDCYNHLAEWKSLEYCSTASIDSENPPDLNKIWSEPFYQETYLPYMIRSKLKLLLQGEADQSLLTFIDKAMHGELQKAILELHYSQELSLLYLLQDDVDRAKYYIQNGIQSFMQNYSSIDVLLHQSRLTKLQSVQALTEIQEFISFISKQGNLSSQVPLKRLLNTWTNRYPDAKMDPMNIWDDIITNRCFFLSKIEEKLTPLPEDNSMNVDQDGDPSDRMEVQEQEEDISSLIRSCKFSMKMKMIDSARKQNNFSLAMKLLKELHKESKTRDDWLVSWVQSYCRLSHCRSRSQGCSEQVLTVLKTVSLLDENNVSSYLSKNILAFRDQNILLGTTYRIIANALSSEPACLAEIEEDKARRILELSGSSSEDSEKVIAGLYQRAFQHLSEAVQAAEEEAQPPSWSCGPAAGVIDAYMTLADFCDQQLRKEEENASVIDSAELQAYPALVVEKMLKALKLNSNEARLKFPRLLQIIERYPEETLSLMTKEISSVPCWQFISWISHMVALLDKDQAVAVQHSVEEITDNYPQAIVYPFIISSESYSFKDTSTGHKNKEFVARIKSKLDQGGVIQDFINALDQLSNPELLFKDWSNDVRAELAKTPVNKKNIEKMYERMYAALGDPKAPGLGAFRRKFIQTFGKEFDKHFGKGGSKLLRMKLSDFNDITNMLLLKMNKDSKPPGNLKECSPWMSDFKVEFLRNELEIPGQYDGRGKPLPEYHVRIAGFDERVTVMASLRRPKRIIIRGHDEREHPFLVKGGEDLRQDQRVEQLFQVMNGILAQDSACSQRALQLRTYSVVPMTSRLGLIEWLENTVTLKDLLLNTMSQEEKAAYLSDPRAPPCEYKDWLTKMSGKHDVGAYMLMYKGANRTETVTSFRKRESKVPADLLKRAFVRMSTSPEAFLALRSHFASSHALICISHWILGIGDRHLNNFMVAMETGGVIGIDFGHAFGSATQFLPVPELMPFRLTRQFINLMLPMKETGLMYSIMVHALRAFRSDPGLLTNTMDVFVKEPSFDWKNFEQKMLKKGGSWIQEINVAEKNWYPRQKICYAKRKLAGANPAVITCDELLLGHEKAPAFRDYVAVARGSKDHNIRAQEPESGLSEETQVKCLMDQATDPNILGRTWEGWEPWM
UniProt P08754: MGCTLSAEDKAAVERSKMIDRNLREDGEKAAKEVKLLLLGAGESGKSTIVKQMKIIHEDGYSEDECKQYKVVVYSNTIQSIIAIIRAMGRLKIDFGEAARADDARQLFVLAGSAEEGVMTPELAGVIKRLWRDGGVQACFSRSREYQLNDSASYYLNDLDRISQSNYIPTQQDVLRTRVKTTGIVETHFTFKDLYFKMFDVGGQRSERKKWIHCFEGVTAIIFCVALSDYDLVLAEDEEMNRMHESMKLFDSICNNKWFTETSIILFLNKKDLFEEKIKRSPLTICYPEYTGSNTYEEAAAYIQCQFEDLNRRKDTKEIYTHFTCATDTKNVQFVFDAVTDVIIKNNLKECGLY

No constants are given. Whether binding was seen depends on the method and setting. Binding seen in cells or lysates may run through a third protein. Some results given as binding are weak or reduced against the parent protein; the word gives no strength.

As to “Gαi3 (G protein α inhibitory subunit 3) (from UniProt P08754 1-354)”, the binding result is given as “binds”.
